Data as given in PubChem BioAssay AID1259308 (NCATS, 2017).
Here is one part, drawn at random, of about 59,000 reagents. Of all reagents, about 1,510 (2.6%) got an active call. 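Calls use total luciferase alone and ignore viability, so some active siRNAs may act by altering cell number.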 Reagents against one gene are numbered here.

Purpose: 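Genes whose loss raises luciferase production in HEK293 cells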 (primary screen)
System: human HEK293 embryonic kidney cells stably expressing firefly luciferase (HEK-CMV-Luc2-Hygro)
Knock-down reagent: single siRNA against human genes, 0.8 pmol siRNA per well
Time to read-out: 72 h
Measurement: 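Luciferase light (ONE-Glo) measured on one replicate plate set and viability (CellTiter-Glo) on the other, scaled to a negative control siRNA, with robust z-scores and luciferase per cell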
Direction: total luciferase, z-score and total luciferase, % of control: higher = more reporter protein produced; luciferase per cell, z-score: higher = more reporter output per viable cell; viable cells, % of control: higher = more viable cells
Hit rule: 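An siRNA counts as active if its total luciferase robust z-score exceeds 3; genes with two or more such siRNAs out of three were retested with fresh siRNAs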
Calls: active = raised luciferase; inactive = no rise

no.	gene knocked down	reagent	total luciferase, z-score	total luciferase, % of control	luciferase per cell, z-score	viable cells, % of control	Outcome
1	RPP40	1	-0.302	75.9	-0.393	94.1	inactive
2	RPP40	2	3.8	158	2.36	94.6	active
3	RPP40	3	-1.08	60.4	-0.94	86.4	inactive
4	ZNF718	1	1.26	107	1.68	76.6	inactive
5	ZNF718	2	-2.48	32.6	-1.84	59.1	inactive
6	ZNF718	3	-0.42	73.5	-0.479	93.2	inactive
7	KIAA0319L	1	-1.28	56.3	-1.46	92.5	inactive
8	KIAA0319L	2	-0.298	76	-0.576	98.8	inactive
9	KIAA0319L	3	0.181	85.5	0.672	80	inactive
10	POU1F1	1	1.29	108	0.715	99.5	inactive
11	POU1F1	2	2.12	124	2.13	79.1	inactive
12	POU1F1	3	-1.74	47.3	-2	89.5	inactive
13	FMO5	1	2.8	138	1.43	105	inactive
14	FMO5	2	-2.37	34.8	-2.32	71.7	inactive
15	FMO5	3	0.188	85.6	0.11	93	inactive
16	PMP2	1	0.643	94.7	1.49	71.5	inactive
17	PMP2	2	-0.937	63.2	-1.15	95.8	inactive
18	PMP2	3	0.606	93.9	0.264	97.9	inactive
19	NAB1	1	-1.66	48.9	0.644	46.1	inactive
20	NAB1	2	-1.04	61.1	-0.321	74.3	inactive
21	NAB1	3	1.22	106	1.74	74.9	inactive
22	MEIG1	1	-0.0253	81.4	-0.135	94.2	inactive
23	MEIG1	2	-0.0448	81	0.0965	88.2	inactive
24	MEIG1	3	-0.218	77.6	0.799	70.2	inactive
25	TRIM5	1	-0.593	70.1	-0.477	88.8	inactive
26	TRIM5	2	-1.57	50.6	-1.19	77.4	inactive
27	TRIM5	3	0.0637	83.2	0.414	83.3	inactive
28	POLD4	1	-2.05	41	-1.78	73.3	inactive
29	POLD4	2	-1.26	56.9	-1.59	96.6	inactive
30	POLD4	3	-0.326	75.4	-0.757	103	inactive
31	GPR152	1	-0.669	68.6	-0.365	84.4	inactive
32	GPR152	2	2.45	131	1.43	100	inactive
33	GPR152	3	-1.53	51.6	-1.28	80.7	inactive
34	F8	1	0.459	91	0.171	97.2	inactive
35	F8	2	2.67	135	1.18	110	inactive
36	F8	3	-0.483	72.3	-0.933	103	inactive
37	TMEM67	1	-0.191	78.1	-0.437	97.9	inactive
38	TMEM67	2	-0.756	66.9	-0.99	97	inactive
39	TMEM67	3	-0.965	62.7	-1.38	101	inactive

Records above whose target name starts with Z or z:
gene knocked down	reagent	total luciferase, z-score	total luciferase, % of control	luciferase per cell, z-score	viable cells, % of control	Outcome
ZNF718	1	1.26	107	1.68	76.6	inactive
ZNF718	2	-2.48	32.6	-1.84	59.1	inactive
ZNF718	3	-0.42	73.5	-0.479	93.2	inactive
